Earlier results as cited in patent publication US20050020601A1, “Novel pyrazinones as CRF1 receptor antagonists” (Pfizer Inc, priority 2003, published 2005).
At least one compound was matched to its structure with a doubt left.

Legend:
[1] = system: rats; settings: conflict test
[2] = system: rats; settings: acoustic startle test

## CNC1=Nc2ccc(Cl)cc2C(c2ccccc2)=[N+]([O-])C1 [Chlordiazepoxide]
[1]
  effect on the "anxiogenic" effects/actions of CRF: attenuates
[2]
  effect on the "anxiogenic" effects of CRF: attenuates
